# Experimental data: PubChem BioAssay AID1259262 (Sanger Institute, 2017)
# Test: 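Confirming kinase hits that combine with targeted drugs in colorectal cancer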 (follow-up of hits)
# System: LS513 human colorectal cancer cells
# Reagent: single siRNA against human genes
# Challenge: anchor drug or DMSO vehicle: cetuximab 5 µg/ml, trametinib 10 nM or BYL719 1 µM; exposure length not given
# Measured: 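Per anchor drug, a replicate-averaged synergy score, plus viability as a fraction of the non-targeting control siRNA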
# Reading the numbers: synergy score with trametinib and synergy score with BYL719 and synergy score with cetuximab: higher = stronger synergistic loss of viability with drug
# Call rule: 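Called active if at least one of the three drugs gives a synergy score over 0.10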
# Meaning of the calls: active = synergy with at least one drug; inactive = no synergy with any drug
# In all, the deposit lists 160 reagents; shown is an unselected part. 93 of all reagents (58%) count as active. 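Calls refer to single siRNAs; gene-level validation required two or more siRNAs in several lines; synergy score formula unstated.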 The numbers tell different reagents against one gene apart. Not all columns of the deposit are shown. Not stated in the record: the amount of reagent, the time to read-out.
Gene,reagent no.,synergy score with trametinib,synergy score with BYL719,synergy score with cetuximab,call
NLK,1,0.119,-0.0772,-0.0327,active
NLK,2,0.0195,-0.166,-0.0601,inactive
NLK,3,-0.00478,-0.226,-0.0932,inactive
NLK,4,0.0261,-0.165,-0.11,inactive
CAMK2N1,1,0.0945,-0.19,-0.134,inactive
CAMK2N1,2,-0.0843,0.428,-0.117,
CAMK2N1,3,0.0941,-0.0115,-0.0179,inactive
CAMK2N1,4,0.0363,-0.202,-0.158,inactive
KCNH8,1,0.229,-0.0956,0.0267,active
KCNH8,2,0.102,-0.0695,-0.0213,active
KCNH8,3,-0.0478,-0.15,-0.153,inactive
KCNH8,4,0.15,-0.165,-0.0188,active
PINK1,1,-0.0685,-0.226,-0.11,inactive
PINK1,2,0.302,0.0988,0.0295,active
PINK1,3,0.103,0.00384,-0.0193,active
PINK1,4,0.132,0.0402,-0.0314,active
RPS6KA4,1,-0.00614,-0.122,-0.0616,inactive
RPS6KA4,2,0.138,-0.186,-0.11,active
RPS6KA4,3,0.246,-0.0299,-0.017,active
RPS6KA4,4,0.409,0.0307,0.0541,active
PIM1,1,0.122,-0.125,-0.0232,active
PIM1,2,0.238,-0.134,-0.017,active
PIM1,3,0.029,-0.141,-0.127,inactive
PIM1,4,0.0803,-0.162,-0.186,inactive
HSPB8,1,0.245,-0.253,-0.154,active
HSPB8,2,-0.115,-0.0685,-0.0733,inactive
HSPB8,3,0.0487,-0.19,-0.169,inactive
HSPB8,4,0.128,-0.0407,-0.222,active
IRAK3,1,0.217,-0.142,0.0632,active
IRAK3,2,0.378,0.0628,0.166,active
IRAK3,3,0.12,-0.0575,-0.0195,active
IRAK3,4,0.0643,-0.00671,-0.11,inactive
CHD4,1,-0.0145,-0.128,-0.0542,inactive
CHD4,2,0.117,-0.0984,0.00425,active
CHD4,3,0.0717,-0.00221,0.0136,inactive
CHD4,4,0.0539,-0.112,-0.0164,inactive
BRAF,1,-0.174,-0.161,-0.293,inactive
BRAF,2,0.154,-0.0788,-0.00402,active
BRAF,3,0.155,-0.101,-0.019,active
BRAF,4,0.0133,-0.0874,-0.217,inactive
BMPR2,1,0.0415,-0.125,-0.11,inactive
BMPR2,2,0.102,-0.139,0.0266,active
BMPR2,3,0.0798,-0.0899,0.0903,inactive
BMPR2,4,-0.238,-0.226,-0.11,inactive
CRIM1,1,0.0381,-0.0409,-0.216,inactive
CRIM1,2,0.139,-0.195,-0.0313,active
CRIM1,3,0.293,0.106,-0.0327,active
CRIM1,4,0.311,-0.143,-0.202,active
CSNK2A2,1,0.136,-0.201,-0.11,active
CSNK2A2,2,0.101,-0.236,0.0584,active
CSNK2A2,3,0.143,-0.063,-0.131,active
CSNK2A2,4,0.113,-0.148,-0.0143,active
MAPKAPK2,1,0.0375,-0.053,-0.00257,inactive
MAPKAPK2,2,0.136,-0.134,-0.0602,active
MAPKAPK2,3,0.0811,0.0109,-0.0187,inactive
MAPKAPK2,4,0.174,-0.0728,-0.0706,active
ACVR1,1,0.0925,-0.118,-0.11,inactive
ACVR1,2,0.183,-0.226,-0.0895,active
ACVR1,3,0.307,-0.226,-0.11,active
ACVR1,4,0.176,-0.126,-0.0295,active
GRK5,1,0.114,-0.226,-0.11,active
GRK5,2,0.111,-0.226,-0.11,active
GRK5,3,0.157,-0.099,-0.0789,active
GRK5,4,0.053,-0.0354,0.0631,inactive
